## Library screening results

Chains of the proteins cited; added tags and fusions are not shown.
UniProt E9BF75, entry or part of it: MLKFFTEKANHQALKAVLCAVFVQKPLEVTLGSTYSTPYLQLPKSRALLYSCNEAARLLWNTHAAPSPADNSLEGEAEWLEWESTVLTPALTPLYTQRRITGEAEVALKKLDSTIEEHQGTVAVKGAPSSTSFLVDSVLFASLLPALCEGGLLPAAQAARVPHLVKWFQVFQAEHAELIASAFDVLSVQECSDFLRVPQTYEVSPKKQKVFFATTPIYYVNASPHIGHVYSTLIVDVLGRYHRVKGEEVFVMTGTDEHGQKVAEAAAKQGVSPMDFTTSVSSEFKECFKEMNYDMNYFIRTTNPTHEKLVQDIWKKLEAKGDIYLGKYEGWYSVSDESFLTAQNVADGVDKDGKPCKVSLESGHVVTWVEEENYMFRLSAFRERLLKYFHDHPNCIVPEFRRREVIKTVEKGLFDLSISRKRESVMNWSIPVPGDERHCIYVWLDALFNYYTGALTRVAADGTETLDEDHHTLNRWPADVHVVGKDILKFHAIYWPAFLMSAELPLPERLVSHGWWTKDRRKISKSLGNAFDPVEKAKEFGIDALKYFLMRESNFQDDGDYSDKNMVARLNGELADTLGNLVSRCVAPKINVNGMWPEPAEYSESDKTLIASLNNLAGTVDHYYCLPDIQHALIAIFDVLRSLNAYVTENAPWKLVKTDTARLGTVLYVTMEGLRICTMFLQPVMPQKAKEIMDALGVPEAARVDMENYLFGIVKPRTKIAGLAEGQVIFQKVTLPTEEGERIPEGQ

The values are deposited in ChEMBL (CHEMBL3988442, “University of Dundee, Small-Polar-MMV Screening Library” (2021)).

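Primary screen of methionyl-tRNA synthetase; the read-out is not stated. Target: Methionyl-tRNA synthetase (putative), Leishmania donovani (UniProt E9BF75). The test concentration is not given. The values are filed as inhibition. Size under these conditions: about 68,000 compounds, about 24 of them at 50% or above in at least one test.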

Results are percentages, as filed.
The record does not define 0% and 100%; most values in the screen are far below 50% and negative numbers occur (in some assays of this library far below -100).
This is an unselected part of the compounds tested.

- O=C(CCN1CCCCO1)NC1CCCN(CC2CCCCC2)C1 (centres undefined) | 1.535%
- O=S(=O)(Cc1ccccc1)NCCNc1ccc(-n2cccc2)nn1 | 4.317%
- Cc1cc(N2CCC(C(=O)N(C)C)CC2)nc(-c2ccncc2)n1 | 22.4%
- Cc1cc(N2CCCCC2)c(C#N)c(C)n1 | 18.55%
- O=C(NCCc1cccnc1)c1ccc2nccn2c1 | 9.756%
- COCCC(=O)N1CCCC1c1nc(O)cc(-c2ccccn2)n1 (centres undefined) | 9.04%
- Nc1nc2c(c(NC(Cn3cccn3)c3ccccc3)n1)CCNCC2 (centres undefined) | 10.95%
- Cc1nn(C)c(C)c1C1COCCN1C(=O)Cc1cccc(F)c1 (centres undefined) | 7.389%
- CS(=O)(=O)N1CCC2(CCCN(Cc3ccccn3)C2)C1 (centres undefined) | -1.031%
- Cc1nccn1-c1ccc(NS(=O)(=O)c2cnn(C)c2)cn1 | 3.361%
- COC(=O)C(c1ccccc1)N(C)C(=O)c1ccnc(C)n1 (centres undefined) | 17.09%
- O=S1(=O)C[C@@H]2[C@H](C1)N(S(=O)(=O)N1CCCC1)CCN2Cc1ccccc1 | 17.25%
- NC(=O)c1cnn2c(C3CCCN(C4CCOCC4)C3)ccnc12 (centres undefined) | 16.82%
- CSc1nc(N)c2c(n1)N=C1COC(O)=C1C2c1cccc(O)c1 (centres undefined) | 19.55%
- CCc1nnc(CN(CC)C(=O)C2CCC(=O)N(C3CCCC3)C2)o1 (centres undefined) | 8.184%
- O=C(NCC1CCCO1)C1CCN(Cc2nc(C3CC3)no2)CC1 (centres undefined) | 14.29%
- Cc1sc(CS(C)(=O)=O)nc1-c1ccc(Cl)cc1 | 10.64%
- O=C(c1ccccc1)N1CCCN(C(=O)c2ncncc2Cl)CC1 | 7.459%
- COc1ccccc1C(C)NC(=O)NCCC(=O)NC1CCCCC1 (centres undefined) | 15.49%
- Cc1ccccc1C(=O)N1CCOCC1CN(C)C (centres undefined) | 15.03%
- O=C(c1ccco1)N1CCOC2(COCCN(c3ncccn3)C2)C1 (centres undefined) | 11.54%
- O=C(CCn1cnc2cc(F)c(F)cc21)N1CCN(C2CC2)CC1 | 16.02%
- Clc1ccc(N2CCC(OCC3CCCCO3)CC2)nc1 (centres undefined) | 12.04%
- CNCC(=O)Nc1cccc(-c2cnc(NCCO)nc2)c1 | 15.29%
- CC(C)c1nnc2n1CCN(Cc1cc(Cl)c3c(c1)OCO3)C2 | 10.3%
- COCc1nn(C(C)C)c2c1CCN(Cc1ccc(C)s1)C2 | 10.5%
- Cc1noc(C)c1CN1C[C@@H](OCc2ccccn2)[C@H]2OCCC[C@H]21 | 11.24%
- CN(C)Cc1cnc2n1CCN(C(=O)Cc1cccc(F)c1)CC2 | 13.41%
- CC(CC#N)n1ccc(C(F)(F)F)n1 (centres undefined) | 8.378%
- Cc1cnn(CCNCC(O)COc2cc(Cl)ccc2Cl)c1 (centres undefined) | 24.51%
- CCCc1cc(CNC2CCN(c3cc(C)nc(N)n3)CC2)on1 | 19.63%
- CCn1nc(C)c2nc(C(C)C)nc(NCCOC)c21 | 12.03%
- CCN1CC(COC(=O)c2ccccc2Cl)CC1=O (centres undefined) | 7.494%
- CCNC(=O)CS(=O)(=O)NC1CCC(C)CC1 (centres undefined) | 14.71%
- FC(F)Oc1ccccc1CN1CCCC(c2nccn2CC2CC2)C1 (centres undefined) | 18.56%
- Cn1cnc2ccc(NC(=O)CC3CCN(C4CCCCC4)CC3)cc21 | 6.522%
- CN(C)Cc1nn(C)c2c1CN(C(=O)c1cccc(C#N)c1)C2 | 12.5%
- CS(=O)(=O)CCC(=O)N(CCc1cccc(F)c1)C1CC1 | 17.76%
- CN(Cc1ccccc1)C(=O)Cn1nc(N2CCOCC2)ccc1=O | 10.76%
- CCn1nc(C)c(CNC(=O)NCC(C)(O)c2ccco2)c1C (centres undefined) | 6.25%
- COc1c(C)cnc(CNC(=O)c2cnc3onc(C)c3c2)c1C | 9.89%
- O=C(CN1CCCc2sccc2C1=O)NC1CCc2nccn2C1 (centres undefined) | -0.2841%